Test results: publication doi:10.1101/2024.01.24.576984
Results are given in words; binding and its absence hold for the method and conditions named. Binding seen in cells or lysates may run through a third protein. Here binding means that the protein was enriched with, or labelled near, the bait; the list need not be complete.

Sequences of proteins named here, by UniProt entry; tags and fusion partners are left off. A change or cut given only in a name is not applied to a line headed by its entry. Residues count along the entry.
UniProt Q9NVR2: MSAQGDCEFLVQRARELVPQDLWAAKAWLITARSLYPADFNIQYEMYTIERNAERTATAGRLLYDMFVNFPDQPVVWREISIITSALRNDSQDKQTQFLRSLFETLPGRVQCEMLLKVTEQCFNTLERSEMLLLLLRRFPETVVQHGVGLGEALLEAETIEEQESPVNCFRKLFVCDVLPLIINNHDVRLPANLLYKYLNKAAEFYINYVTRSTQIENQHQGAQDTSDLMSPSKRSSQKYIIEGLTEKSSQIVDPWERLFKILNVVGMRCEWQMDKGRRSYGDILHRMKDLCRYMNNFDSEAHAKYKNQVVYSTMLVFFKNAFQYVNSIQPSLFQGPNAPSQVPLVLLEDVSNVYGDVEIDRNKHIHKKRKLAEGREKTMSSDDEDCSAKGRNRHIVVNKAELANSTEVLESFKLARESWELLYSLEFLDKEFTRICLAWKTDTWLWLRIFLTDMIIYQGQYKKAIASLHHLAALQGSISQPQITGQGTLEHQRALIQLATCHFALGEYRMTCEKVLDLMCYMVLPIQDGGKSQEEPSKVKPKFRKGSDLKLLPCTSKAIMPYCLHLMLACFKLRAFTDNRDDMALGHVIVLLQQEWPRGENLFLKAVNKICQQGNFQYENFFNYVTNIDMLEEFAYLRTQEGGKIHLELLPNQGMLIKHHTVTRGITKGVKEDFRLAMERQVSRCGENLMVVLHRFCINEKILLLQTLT
UniProt Q9NVM9, residues 1-648: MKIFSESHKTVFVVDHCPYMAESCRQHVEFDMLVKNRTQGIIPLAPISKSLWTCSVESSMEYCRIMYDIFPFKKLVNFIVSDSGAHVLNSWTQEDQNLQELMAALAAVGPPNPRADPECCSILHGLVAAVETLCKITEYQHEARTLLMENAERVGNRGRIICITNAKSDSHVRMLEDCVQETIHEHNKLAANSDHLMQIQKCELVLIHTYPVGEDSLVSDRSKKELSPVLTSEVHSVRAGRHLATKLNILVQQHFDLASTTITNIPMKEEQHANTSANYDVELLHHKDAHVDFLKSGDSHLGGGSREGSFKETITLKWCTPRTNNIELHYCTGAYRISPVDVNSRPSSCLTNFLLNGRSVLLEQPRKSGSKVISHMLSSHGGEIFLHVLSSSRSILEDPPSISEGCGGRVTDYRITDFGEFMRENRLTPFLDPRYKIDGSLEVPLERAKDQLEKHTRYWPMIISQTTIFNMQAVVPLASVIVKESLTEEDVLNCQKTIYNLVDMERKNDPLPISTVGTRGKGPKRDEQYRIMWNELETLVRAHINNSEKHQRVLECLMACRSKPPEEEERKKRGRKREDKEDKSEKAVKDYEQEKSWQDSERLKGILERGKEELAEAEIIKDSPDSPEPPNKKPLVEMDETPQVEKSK

How the values were obtained:
INTS10-C2S (human) = INTS10-C2S (human) (UniProt Q9NVR2); experiment: affinity purification with mass spectrometry
2SC-INTS13ΔC (human) = 2SC-INTS13ΔC (human) (UniProt Q9NVM9); experiment: affinity purification with mass spectrometry

B1: ICE2 (protein, UniProt Q659A1 1-982)
chain: MSSKMVISEPGLNWDISPKNGLKTFFSRENYKDHSMAPSLKELRVLSNRRIGENLNASASSVENEPAVSSATQAKEKVKTTIGMVLLPKPRVPYPRFSRFSQREQRSYVDLLVKYAKIPANSKAVGINKNDYLQYLDMKKHVNEEVTEFLKFLQNSAKKCAQDYNMLSDDARLFTEKILRACIEQVKKYSEFYTLHEVTSLMGFFPFRVEMGLKLEKTLLALGSVKYVKTVFPSMPIKLQLSKDDIATIETSEQTAEAMHYDISKDPNAEKLVSRYHPQIALTSQSLFTLLNNHGPTYKEQWEIPVCIQVIPVAGSKPVKVIYINSPLPQKKMTMRERNQIFHEVPLKFMMSKNTSVPVSAVFMDKPEEFISEMDMSCEVNECRKIESLENLYLDFDDDVTELETFGVTTTKVSKSPSPASTSTVPNMTDAPTAPKAGTTTVAPSAPDISANSRSLSQILMEQLQKEKQLVTGMDGGPEECKNKDDQGFESCEKVSNSDKPLIQDSDLKTSDALQLENSQEIETSNKNDMTIDILHADGERPNVLENLDNSKEKTVGSEAAKTEDTVLCSSDTDEECLIIDTECKNNSDGKTAVVGSNLSSRPASPNSSSGQASVGNQTNTACSPEESCVLKKPIKRVYKKFDPVGEILKMQDELLKPISRKVPELPLMNLENSKQPSVSEQLSGPSDSSSWPKSGWPSAFQKPKGRLPYELQDYVEDTSEYLAPQEGNFVYKLFSLQDLLLLVRCSVQRIETRPRSKKRKKIRRQFPVYVLPKVEYQACYGVEALTESELCRLWTESLLHSNSSFYVGHIDAFTSKLFLLEEITSEELKEKLSALKISNLFNILQHILKKLSSLQEGSYLLSHAAEDSSLLIYKASDGKVTRTAYNLYKTHCGLPGVPSSLSVPWVPLDPSLLLPYHIHHGRIPCTFPPKSLDTTTQQKIGGTRMPTRSHRNPVSMETKSSCLPAQQVETEGVAPHKRKIT
- binding (INTS10-C2S (human)): binds
- binding (2SC-INTS13ΔC (human)): binds
